Article PMC7862473
Results are given in words; binding and its absence hold for the method and conditions named. Binding seen in cells or lysates may run through a third protein. Some entries that bind do so weakly or less than the wild type.

Amino acid sequences for entries named in this document (tags omitted).
UniProt Q9H4G0: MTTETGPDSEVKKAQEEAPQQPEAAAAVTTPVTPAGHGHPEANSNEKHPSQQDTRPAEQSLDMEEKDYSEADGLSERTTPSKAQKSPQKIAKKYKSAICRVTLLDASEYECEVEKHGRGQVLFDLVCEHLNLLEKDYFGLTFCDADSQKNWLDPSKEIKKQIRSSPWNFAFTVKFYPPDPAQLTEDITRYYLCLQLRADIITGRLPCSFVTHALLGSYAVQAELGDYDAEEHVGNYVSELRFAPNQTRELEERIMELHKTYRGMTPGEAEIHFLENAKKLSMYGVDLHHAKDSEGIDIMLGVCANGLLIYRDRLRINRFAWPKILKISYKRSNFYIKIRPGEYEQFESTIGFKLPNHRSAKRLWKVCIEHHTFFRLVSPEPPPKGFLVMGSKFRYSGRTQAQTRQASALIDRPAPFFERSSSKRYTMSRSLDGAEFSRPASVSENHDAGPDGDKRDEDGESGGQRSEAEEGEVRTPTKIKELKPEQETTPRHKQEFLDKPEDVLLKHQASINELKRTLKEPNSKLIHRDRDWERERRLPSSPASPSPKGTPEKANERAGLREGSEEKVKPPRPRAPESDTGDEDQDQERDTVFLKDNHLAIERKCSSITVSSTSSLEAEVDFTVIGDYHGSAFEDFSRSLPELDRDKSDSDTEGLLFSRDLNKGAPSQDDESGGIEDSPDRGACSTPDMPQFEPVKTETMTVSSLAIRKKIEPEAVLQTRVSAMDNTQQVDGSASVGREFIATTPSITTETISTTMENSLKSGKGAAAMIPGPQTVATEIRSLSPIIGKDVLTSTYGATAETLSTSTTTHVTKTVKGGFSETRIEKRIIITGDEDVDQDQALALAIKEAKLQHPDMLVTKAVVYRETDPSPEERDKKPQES
UniProt P63104: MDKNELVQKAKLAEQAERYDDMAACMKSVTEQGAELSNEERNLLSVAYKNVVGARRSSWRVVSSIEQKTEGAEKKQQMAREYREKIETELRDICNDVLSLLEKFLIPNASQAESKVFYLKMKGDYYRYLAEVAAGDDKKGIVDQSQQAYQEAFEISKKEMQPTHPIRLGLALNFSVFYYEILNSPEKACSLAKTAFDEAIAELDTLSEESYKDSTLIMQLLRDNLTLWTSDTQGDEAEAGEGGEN
UniProt Q07812: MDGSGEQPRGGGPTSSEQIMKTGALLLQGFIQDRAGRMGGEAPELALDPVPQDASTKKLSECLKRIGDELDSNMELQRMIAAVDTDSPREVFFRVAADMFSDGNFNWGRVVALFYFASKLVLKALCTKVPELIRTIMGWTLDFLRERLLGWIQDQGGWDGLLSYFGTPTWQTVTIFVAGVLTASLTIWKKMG

Legend:
[1] = target: GST-4.1N (EPB41L1-pGEX-4T-1) (human) (UniProt Q9H4G0); assay: pull-down; GST Protein Interaction Pull-Down Kit (Pierce); GST fusion protein produced in E. coli; complexes visualized by Western blot
[2] = target: 4.1N expressed from EPB41L1-pEGFP in A2780 OE cells (human) (UniProt Q9H4G0); assay: co-IP; A2780 WT and A2780 OE lysates (50 mmol/L Tris-HCl pH 8.0, 150 mmol/L NaCl, 0.2% Nonidet P-40, 2 mmol/L EDTA); 2 µg anti-GFP antibody overnight at 4 °C, protein A/G agarose beads, immunoblot
[3] = target: 14-3-3ζ (human (endogenous in A2780)) (UniProt P63104); assay: co-IP; Co-IP of 14-3-3ζ by agarose beads followed by Western blot with indicated antibodies

| Substance | binding [1] | binding [2] | binding [3] |
| --- | --- | --- | --- |
| 14-3-3ζ (from UniProt P63104 1-245) | binds | binds |  |
| Bax (from UniProt Q07812 1-192) |  |  | binds |
